Test results published in patent US6979572B1, “Compositions and methods for inhibiting inward-rectifier potassium channels” (Trustees of the University of Pennsylvania, priority 1998, dated 2005).
Where two headings read alike, the source gives them in different places. For at least one compound, name, drawing or mass did not settle the structure. Some entries share one result that the patent states for a list of compounds. Peptide text beside a SMILES is read from it.

Target: T1, GIRK1/4 channel (Rattus norvegicus, UniProt P48548+P63251)
T1 construct: expressed in transfected cells; host or cells: Xenopus laevis oocytes (cRNA injection)
T1 sequence (P63251 1-501): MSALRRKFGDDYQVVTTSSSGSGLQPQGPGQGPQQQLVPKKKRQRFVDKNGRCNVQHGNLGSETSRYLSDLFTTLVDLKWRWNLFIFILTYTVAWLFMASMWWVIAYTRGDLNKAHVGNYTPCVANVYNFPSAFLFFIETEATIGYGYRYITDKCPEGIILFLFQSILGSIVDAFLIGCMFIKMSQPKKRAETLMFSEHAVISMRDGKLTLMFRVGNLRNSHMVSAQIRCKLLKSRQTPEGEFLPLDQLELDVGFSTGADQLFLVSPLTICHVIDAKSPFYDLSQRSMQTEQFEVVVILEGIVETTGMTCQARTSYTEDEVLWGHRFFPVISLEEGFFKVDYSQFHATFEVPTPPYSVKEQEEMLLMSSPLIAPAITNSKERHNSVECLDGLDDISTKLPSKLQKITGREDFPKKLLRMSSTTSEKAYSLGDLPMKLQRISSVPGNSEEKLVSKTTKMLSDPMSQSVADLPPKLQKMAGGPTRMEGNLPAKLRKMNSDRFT
T1 sequence (P48548 1-419): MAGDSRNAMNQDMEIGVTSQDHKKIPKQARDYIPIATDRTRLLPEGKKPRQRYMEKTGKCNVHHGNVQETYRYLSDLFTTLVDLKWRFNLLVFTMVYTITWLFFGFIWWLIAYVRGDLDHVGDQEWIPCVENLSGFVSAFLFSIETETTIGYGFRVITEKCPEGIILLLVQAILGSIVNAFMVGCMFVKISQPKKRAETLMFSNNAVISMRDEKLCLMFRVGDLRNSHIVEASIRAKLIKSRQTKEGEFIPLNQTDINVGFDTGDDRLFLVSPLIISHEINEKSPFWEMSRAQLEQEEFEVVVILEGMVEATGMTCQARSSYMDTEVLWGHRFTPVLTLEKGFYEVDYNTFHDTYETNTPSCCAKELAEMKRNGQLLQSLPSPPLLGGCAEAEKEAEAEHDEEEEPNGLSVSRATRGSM
Type: cell-based

SMILES	affinity of the GIRK1/4 channel, fold lower than that for tertiapin	Kd (read-out: affinity of the channel (Kd)) [µM]	effect on / sensitivity of the GIRK1/4 channel, in words	affinity of the GIRK1/4 channel, fold lower than that for tertiapin (relative to tertiapin Kd=8 nM)
CC[C@H](C)[C@H](N)C(=O)N[C@@H](CCCCN)C(=O)N[C@H]1CSSC[C@@H]2NC(=O)[C@H]([C@@H](C)CC)NC(=O)[C@H](Cc3c[nH]cn3)NC(=O)[C@@H]3CCCN3C(=O)[C@H](CCCCN)NC(=O)[C@H]([C@@H](C)CC)NC(=O)[C@H](C(C)C)NC(=O)[C@H](Cc3c[nH]cn3)NC(=O)[C@H](CCCNC(=N)N)NC(=O)[C@H](CCCCN)NC(=O)[C@H](CSSC[C@@H](C(=O)NCC(=O)N[C@@H](CCCCN)C(=O)N[C@@H](CC(N)=O)C(N)=O)NC(=O)[C@H]([C@@H](C)CC)NC(=O)[C@H](CCCCN)NC(=O)[C@H](CCCNC(=N)N)NC2=O)NC(=O)[C@H](CC(N)=O)NC1=O [MCDP, mast cell degranulating peptide] (HELM PEPTIDE1{I.K.C.N.C.K.R.H.V.I.K.P.H.I.C.R.K.I.C.G.K.N.[am]}$PEPTIDE1,PEPTIDE1,3:R3-15:R3|PEPTIDE1,PEPTIDE1,5:R3-19:R3$$$V2.0; N-terminus and C-terminus assumed; bridges inferred)	at least 100 fold	> 1		
CC(C)C[C@@H]1NC(=O)[C@H](C)NC(=O)[C@H]([C@@H](C)O)NC(=O)[C@H](CCC(=O)O)NC(=O)[C@@H]2CCCN2C(=O)[C@H](C)NC(=O)[C@H](CCCCN)NC(=O)[C@@H]2CSSC[C@@H](C(=O)N[C@@H](CCC(N)=O)C(=O)N[C@@H](CCC(N)=O)C(=O)N[C@@H](Cc3cnc[nH]3)C(N)=O)NC(=O)[C@H](CCCNC(=N)N)NC(=O)[C@H](CCCNC(=N)N)NC(=O)[C@H](C)NC(=O)[C@H](CSSC[C@H](N)C(=O)N[C@@H](CC(N)=O)C(=O)N2)NC1=O [apamin]			do not inhibit the activity	at least 100 fold
